Test results: the supplement of paper PMC10849652
This is one part of the list.

Amino acid sequences for entries named in this document (tags omitted). A change or cut given only in a name is not applied to a line headed by its entry.
UniProt Q9NWV4: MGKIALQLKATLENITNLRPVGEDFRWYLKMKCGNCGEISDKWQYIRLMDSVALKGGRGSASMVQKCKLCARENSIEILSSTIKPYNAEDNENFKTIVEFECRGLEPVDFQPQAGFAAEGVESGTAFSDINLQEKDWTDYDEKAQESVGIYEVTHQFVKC
UniProt O00148, whole entry, looked up: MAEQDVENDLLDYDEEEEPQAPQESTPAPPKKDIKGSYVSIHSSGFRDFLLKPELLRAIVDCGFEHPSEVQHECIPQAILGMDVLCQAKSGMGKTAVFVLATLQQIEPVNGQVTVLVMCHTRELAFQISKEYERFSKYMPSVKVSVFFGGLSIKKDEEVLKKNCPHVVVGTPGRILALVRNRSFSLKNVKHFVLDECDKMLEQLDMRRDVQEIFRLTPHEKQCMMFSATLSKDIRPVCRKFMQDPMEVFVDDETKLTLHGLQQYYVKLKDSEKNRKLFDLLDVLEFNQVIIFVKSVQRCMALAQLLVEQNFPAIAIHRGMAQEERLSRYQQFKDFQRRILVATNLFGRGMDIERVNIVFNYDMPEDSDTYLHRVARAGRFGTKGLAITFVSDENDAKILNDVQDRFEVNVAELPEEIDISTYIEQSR
UniProt O94830: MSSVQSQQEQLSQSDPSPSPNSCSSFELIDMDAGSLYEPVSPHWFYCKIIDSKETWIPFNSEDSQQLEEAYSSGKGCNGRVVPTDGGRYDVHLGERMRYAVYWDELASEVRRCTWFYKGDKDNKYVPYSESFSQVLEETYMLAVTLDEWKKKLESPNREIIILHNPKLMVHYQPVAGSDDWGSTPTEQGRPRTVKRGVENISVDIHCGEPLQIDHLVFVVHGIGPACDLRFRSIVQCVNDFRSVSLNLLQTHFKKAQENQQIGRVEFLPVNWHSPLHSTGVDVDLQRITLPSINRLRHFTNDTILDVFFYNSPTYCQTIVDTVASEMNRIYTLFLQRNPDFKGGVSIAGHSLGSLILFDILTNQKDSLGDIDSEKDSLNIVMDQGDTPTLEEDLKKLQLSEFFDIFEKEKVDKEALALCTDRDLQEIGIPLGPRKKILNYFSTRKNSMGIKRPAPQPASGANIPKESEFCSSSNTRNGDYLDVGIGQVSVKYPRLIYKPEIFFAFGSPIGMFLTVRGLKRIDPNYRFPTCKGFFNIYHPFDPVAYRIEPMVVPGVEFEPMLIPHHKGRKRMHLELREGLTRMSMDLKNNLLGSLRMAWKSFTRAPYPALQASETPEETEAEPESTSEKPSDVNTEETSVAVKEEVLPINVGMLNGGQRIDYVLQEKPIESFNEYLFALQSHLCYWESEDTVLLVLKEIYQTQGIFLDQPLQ
UniProt Q9Y2R4: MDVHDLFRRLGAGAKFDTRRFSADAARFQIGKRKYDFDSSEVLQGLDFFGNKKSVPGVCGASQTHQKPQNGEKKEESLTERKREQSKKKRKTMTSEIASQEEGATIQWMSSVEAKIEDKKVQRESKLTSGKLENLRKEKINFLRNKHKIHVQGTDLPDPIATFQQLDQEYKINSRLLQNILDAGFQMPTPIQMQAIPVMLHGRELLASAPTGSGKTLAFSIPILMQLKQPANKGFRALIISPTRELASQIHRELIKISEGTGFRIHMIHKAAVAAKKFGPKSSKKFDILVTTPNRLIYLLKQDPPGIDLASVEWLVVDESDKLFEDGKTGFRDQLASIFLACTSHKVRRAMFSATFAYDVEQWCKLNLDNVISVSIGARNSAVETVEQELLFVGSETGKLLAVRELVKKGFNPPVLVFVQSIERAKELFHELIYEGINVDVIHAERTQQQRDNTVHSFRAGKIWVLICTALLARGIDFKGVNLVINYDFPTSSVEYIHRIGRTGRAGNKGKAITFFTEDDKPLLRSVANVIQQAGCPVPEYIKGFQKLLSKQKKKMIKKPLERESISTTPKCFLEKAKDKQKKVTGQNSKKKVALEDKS
UniProt P51397: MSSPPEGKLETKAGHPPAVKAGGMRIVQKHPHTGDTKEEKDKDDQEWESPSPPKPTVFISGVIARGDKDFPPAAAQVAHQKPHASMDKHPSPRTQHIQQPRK
UniProt O00273: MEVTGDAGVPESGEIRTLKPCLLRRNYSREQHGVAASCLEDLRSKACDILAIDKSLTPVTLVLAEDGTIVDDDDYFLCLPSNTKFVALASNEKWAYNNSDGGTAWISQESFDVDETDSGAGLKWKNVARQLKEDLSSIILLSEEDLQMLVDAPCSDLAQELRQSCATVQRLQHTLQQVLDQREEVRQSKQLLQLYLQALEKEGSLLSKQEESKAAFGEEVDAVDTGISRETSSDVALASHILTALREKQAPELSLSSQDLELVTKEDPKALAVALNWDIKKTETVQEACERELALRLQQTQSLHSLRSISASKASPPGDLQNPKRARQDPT
UniProt P0CG12: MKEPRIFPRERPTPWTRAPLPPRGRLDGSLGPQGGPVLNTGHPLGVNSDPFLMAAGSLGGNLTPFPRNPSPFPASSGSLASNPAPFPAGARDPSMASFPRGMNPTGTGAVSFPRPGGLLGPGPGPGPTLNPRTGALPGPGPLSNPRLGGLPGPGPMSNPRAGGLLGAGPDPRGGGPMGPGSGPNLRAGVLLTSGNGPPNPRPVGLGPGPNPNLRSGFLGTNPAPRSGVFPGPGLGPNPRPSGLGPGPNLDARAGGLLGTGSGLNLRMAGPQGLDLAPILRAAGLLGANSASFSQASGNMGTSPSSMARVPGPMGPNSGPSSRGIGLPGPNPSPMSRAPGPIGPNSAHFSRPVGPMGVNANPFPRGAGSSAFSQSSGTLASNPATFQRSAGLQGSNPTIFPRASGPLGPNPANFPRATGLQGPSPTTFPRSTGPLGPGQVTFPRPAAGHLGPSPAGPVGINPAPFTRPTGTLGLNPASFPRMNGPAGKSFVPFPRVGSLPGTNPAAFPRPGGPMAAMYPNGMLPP
UniProt Q9UJW0, whole entry, looked up: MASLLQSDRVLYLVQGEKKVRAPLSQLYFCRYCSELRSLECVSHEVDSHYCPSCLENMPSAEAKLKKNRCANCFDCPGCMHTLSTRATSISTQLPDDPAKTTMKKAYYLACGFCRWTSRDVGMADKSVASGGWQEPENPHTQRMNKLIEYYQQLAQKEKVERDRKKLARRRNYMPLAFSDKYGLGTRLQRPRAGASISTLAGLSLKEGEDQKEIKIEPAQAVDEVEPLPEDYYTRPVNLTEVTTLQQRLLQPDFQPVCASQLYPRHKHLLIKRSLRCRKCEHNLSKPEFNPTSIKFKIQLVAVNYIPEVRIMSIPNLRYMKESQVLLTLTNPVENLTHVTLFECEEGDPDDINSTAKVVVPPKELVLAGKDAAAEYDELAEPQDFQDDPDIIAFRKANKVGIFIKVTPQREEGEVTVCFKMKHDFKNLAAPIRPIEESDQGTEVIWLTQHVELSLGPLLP
UniProt Q92841: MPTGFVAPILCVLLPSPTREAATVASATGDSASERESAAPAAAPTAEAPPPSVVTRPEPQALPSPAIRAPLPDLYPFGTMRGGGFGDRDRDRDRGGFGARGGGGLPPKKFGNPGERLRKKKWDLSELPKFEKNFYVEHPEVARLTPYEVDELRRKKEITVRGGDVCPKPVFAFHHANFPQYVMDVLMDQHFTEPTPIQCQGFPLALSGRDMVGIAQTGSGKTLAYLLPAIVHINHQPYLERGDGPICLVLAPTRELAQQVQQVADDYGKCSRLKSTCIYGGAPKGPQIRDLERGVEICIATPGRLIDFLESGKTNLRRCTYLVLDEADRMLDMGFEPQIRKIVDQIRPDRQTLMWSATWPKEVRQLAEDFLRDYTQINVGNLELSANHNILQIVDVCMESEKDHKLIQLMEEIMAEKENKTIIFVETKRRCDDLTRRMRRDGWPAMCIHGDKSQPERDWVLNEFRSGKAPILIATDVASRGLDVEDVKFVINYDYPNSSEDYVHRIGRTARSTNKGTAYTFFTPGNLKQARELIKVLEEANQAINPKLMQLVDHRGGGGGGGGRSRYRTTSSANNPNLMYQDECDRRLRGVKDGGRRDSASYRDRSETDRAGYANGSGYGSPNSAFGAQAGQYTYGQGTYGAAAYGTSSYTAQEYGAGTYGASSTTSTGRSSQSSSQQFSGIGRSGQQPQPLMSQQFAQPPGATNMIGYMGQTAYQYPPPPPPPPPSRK
UniProt Q13206, whole entry, looked up: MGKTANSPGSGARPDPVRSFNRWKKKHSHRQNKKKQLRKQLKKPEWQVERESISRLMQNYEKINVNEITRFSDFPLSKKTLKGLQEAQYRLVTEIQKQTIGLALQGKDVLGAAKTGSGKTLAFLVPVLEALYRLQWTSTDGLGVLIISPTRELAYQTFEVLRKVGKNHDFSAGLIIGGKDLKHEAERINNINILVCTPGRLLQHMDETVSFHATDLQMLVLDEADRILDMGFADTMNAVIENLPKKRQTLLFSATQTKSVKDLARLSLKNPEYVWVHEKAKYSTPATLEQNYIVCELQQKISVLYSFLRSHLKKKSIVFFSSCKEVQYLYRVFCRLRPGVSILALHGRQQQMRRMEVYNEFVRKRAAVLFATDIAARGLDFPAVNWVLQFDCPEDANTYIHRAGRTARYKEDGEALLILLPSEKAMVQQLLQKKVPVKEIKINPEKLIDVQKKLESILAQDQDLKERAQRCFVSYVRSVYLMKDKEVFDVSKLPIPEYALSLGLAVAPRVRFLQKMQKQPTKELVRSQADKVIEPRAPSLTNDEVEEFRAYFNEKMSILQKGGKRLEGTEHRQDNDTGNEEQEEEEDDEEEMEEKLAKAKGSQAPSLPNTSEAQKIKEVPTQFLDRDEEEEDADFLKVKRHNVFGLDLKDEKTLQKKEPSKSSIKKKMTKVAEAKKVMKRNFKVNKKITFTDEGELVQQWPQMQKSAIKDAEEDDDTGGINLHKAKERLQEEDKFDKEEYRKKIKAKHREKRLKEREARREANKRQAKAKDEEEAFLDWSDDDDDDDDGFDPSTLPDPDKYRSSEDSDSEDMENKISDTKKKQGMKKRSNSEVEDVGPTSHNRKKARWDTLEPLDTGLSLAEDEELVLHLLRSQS
UniProt Q92466: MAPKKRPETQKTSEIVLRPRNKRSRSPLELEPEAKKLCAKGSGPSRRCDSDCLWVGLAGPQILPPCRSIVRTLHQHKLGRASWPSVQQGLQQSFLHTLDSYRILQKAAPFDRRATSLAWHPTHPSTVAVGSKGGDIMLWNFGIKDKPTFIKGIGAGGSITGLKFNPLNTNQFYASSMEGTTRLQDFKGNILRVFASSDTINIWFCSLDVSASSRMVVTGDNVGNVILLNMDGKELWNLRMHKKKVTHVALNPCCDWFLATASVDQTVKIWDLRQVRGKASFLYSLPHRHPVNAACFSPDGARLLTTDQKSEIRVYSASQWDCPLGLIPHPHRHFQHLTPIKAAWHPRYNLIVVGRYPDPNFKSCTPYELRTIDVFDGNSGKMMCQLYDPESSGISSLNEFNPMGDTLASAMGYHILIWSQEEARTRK
UniProt P07108: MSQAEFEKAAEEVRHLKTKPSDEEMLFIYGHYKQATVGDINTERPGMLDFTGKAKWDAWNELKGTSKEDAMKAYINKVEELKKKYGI
UniProt Q9BUN8: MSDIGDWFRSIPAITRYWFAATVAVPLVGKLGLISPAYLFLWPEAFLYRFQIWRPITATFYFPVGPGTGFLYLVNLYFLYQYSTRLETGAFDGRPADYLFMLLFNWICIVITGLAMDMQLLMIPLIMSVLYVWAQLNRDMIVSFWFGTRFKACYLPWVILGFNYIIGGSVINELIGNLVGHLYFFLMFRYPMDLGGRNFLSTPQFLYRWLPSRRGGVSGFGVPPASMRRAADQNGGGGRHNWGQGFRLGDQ
UniProt Q9H8H2: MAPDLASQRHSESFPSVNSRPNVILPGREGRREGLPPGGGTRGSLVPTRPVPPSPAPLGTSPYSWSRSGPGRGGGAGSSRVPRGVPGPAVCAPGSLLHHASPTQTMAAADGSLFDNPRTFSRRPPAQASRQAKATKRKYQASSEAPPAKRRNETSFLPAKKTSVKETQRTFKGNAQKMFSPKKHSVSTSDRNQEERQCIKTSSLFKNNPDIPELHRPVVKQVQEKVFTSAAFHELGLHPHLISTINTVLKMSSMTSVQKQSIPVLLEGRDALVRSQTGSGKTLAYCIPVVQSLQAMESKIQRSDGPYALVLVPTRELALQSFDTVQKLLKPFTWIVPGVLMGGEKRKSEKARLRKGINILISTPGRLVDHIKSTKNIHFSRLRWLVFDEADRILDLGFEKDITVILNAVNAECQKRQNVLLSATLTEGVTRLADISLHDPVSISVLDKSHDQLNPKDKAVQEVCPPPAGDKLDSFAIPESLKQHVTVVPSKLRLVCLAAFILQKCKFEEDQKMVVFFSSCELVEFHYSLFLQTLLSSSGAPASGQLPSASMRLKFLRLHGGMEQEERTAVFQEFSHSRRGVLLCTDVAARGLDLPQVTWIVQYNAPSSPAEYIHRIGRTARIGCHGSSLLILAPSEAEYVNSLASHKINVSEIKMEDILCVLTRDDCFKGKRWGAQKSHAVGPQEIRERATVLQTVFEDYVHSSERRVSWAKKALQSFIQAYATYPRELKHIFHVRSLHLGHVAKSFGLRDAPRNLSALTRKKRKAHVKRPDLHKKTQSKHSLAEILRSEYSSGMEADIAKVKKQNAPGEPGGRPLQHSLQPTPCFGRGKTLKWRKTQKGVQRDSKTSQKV

Key:
Assay in all cases: log2 fold change, soluble protein after heating vs DMSO (PISA); higher = thermal stabilisation; K562 lysate, 10 uM; active = over 0.2 and 3.5 SD of the protein, either way, in both replicates (recomputed)
[1] = compound: C1=CC=C(C=C1)[C@H](COC2=CC3=C(C=C2)NC(=O)N3)NC(=O)C4=CC=CN(C4=O)CC5=CC(=C(C=C5)F)F
Procedure, shortened: (§1)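 Thermal stability, expressed as log-two fold change relative to solvent controls, is given from duplicates. Crude K562 extract in PBS pH 7.4 with 1 mM MgCl2, at 1 mg/mL protein, was treated with 10 μM compound for 30 min and heated in aliquots for 3 min across 48°C-58°C. After pooling, adjustment to 0.5% NP-40 at 4°C and centrifugation at 21,000xg for 90 min, supernatant protein was measured by TMTpro 16plex LC-MS/MS with channel sums equalised.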

[2] = compound: CC1=C(SC2=C1C(=N[C@H](C3=NN=C(N32)C)CC(=O)N)C4=CC=C(C=C4)Cl)C
Procedure, shortened: as §1

[3] = compound: CC1=C2C(=CC=C1)N=C(N(C2=O)C3=CC=CC=C3C)CN4C=NC5=C(N=CN=C54)N
Procedure, shortened: as §1

[4] = compound: Cc1sc2c(c1C)C(c1ccc(Cl)cc1)=N[C@@H](CC(=O)OC(C)(C)C)c1nnc(C)n1-2
Procedure, shortened: as §1

[5] = compound: c1ccc([C@@H]2C[C@H]2NC2CCNCC2)cc1
Procedure, shortened: as §1

Measured: log2 fold change

DCP1B (UniProt Q8IZD4)
inactive: [1] 0.201 | [2] -0.122 | [3] 0.099 | [4] -0.1 | [5] -0.014

CYP51A1 (UniProt Q16850)
inactive: [1] 0.028 | [2] -0.105 | [3] -0.058 | [4] -0.028 | [5] -0.007

DAD1 (UniProt P61803)
inactive: [1] -0.171 | [2] -0.041 | [3] 0.278 | [4] -0.38 | [5] -0.023

D2HGDH (UniProt Q8N465)
inactive: [1] 0.004 | [2] 0.023 | [3] 0.074 | [4] -0.058 | [5] -0.035

DDX1 (UniProt Q92499)
inactive: [1] 0.009 | [2] 0.024 | [3] 0.007 | [4] 0.04 | [5] 0.023

DDX39B isoform 2 (UniProt Q13838)
inactive: [1] -0.012 | [2] 0.026 | [3] -0.016 | [4] 0.024 | [5] 0.001

DDX47 (UniProt Q9H0S4)
inactive: [1] 0.039 | [2] 0.022 | [3] -0.015 | [4] -0.024 | [5] 0.034

DAGLB (UniProt Q8NCG7)
inactive: [1] 0.016 | [2] 0.049 | [3] 0.026 | [4] 0.053 | [5] 0.014

DEK (UniProt P35659)
inactive: [1] 0.011 | [2] 0.011 | [3] 0.033 | [4] 0.013 | [5] 0.017

CZIB (UniProt Q9NWV4)
inactive: [1] 0.06 | [2] -0.009 | [3] -0.035 | [4] 0.031 | [5] -0.004

DDX59 (UniProt Q5T1V6)
inactive: [1] -0.021 | [2] 0.024 | [3] 0.025 | [4] 0.016 | [5] 0.02

DAG1 (UniProt Q14118)
inactive: [1] 0 | [2] -0.006 | [3] 0.017 | [4] 0.022 | [5] -0.049

DEGS1 (UniProt O15121)
inactive: [1] 0.054 | [2] 0.017 | [3] 0.083 | [4] 0.054 | [5] 0.009

DDX6 (UniProt P26196)
inactive: [1] 0.012 | [2] 0.011 | [3] 0.002 | [4] 0.012 | [5] -0.015

DDX39A (UniProt O00148)
inactive: [1] -0.022 | [2] -0.018 | [3] 0.02 | [4] -0.016 | [5] 0

DAXX (UniProt Q9UER7)
inactive: [1] 0.026 | [2] 0.076 | [3] 0.037 | [4] -0.043 | [5] 0.022

DBN1 (UniProt Q16643)
inactive: [1] -0.006 | [2] 0.004 | [3] -0.008 | [4] -0.016 | [5] -0.004

DCUN1D4 isoform 3 (UniProt Q92564)
inactive: [1] 0.084 | [2] 0.087 | [3] 0.055 | [4] -0.139 | [5] 0.055

DDX24 (UniProt Q9GZR7)
inactive: [1] -0.014 | [2] 0.004 | [3] -0.02 | [4] 0.031 | [5] 0.014

DCAF4L2 (UniProt Q8NA75)
inactive: [1] 0.166 | [2] 0.101 | [3] 0.223 | [4] -0.031 | [5] 0.02

DENND4B (UniProt O75064)
inactive: [1] 0.026 | [2] -0.013 | [3] -0.008 | [4] 0.025 | [5] -0.048

CYP24A1 (UniProt Q07973)
inactive: [1] 0.02 | [2] 0.142 | [3] 0.096 | [4] -0.136 | [5] -0.262

DCTN3 (UniProt O75935)
inactive: [1] 0.008 | [2] -0.024 | [3] 0.031 | [4] 0.026 | [5] 0.075

DESI1 (UniProt Q6ICB0)
inactive: [1] 0.035 | [2] -0.002 | [3] -0.025 | [4] 0.142 | [5] 0.014

DDAH2 (UniProt O95865)
inactive: [1] 0.009 | [2] 0.01 | [3] 0.028 | [4] 0.021 | [5] 0.052

DDHD2 (UniProt O94830)
inactive: [1] 0 | [2] 0.017 | [3] -0.007 | [4] -0.022 | [5] 0.002

DCXR (UniProt Q7Z4W1)
inactive: [1] -0.041 | [2] 0.009 | [3] -0.012 | [4] 0.007 | [5] -0.041

DENND4A isoform 2 (UniProt Q7Z401)
inactive: [1] -0.02 | [2] 0.028 | [3] -0.007 | [4] 0.039 | [5] -0.064

DCAF1 (UniProt Q9Y4B6)
inactive: [1] 0.009 | [2] -0.008 | [3] 0.007 | [4] -0.028 | [5] -0.026

DDX52 (UniProt Q9Y2R4)
inactive: [1] 0.012 | [2] -0.066 | [3] 0.019 | [4] -0.051 | [5] -0.111

DAP (UniProt P51397)
inactive: [1] 0.035 | [2] -0.041 | [3] 0.011 | [4] -0.055 | [5] -0.035

DDI2 isoform 3 (UniProt Q5TDH0)
inactive: [1] 0.018 | [2] -0.012 | [3] 0.002 | [4] -0.023 | [5] 0.021

Retrieved one by one from above, two records:
DENND4A isoform 2 (UniProt Q7Z401)
inactive: [1] -0.02 | [2] 0.028 | [3] -0.007 | [4] 0.039 | [5] -0.064

DDX52 (UniProt Q9Y2R4)
inactive: [1] 0.012 | [2] -0.066 | [3] 0.019 | [4] -0.051 | [5] -0.111

Remaining list, next part:

DENND6A (UniProt Q8IWF6)
inactive: [1] -0.101 | [2] -0.008 | [3] -0.026 | [4] 0.039 | [5] 0.023

DFFA isoform 2 (UniProt O00273)
inactive: [1] 0.105 | [2] 0.165 | [3] -0.33 | [4] 0.196 | [5] -0.021

DERPC (UniProt P0CG12)
inactive: [1] -0.008 | [2] -0.237 | [3] 0.046 | [4] -0.029 | [5] 0.064

DBT (UniProt P11182)
inactive: [1] -0.014 | [2] 0.018 | [3] -0.049 | [4] 0.051 | [5] -0.014

DCTN4 (UniProt Q9UJW0)
inactive: [1] 0.015 | [2] -0.026 | [3] 0.037 | [4] -0.055 | [5] 0

DBNL isoform 3 (UniProt Q9UJU6)
inactive: [1] 0.005 | [2] 0.007 | [3] -0.008 | [4] -0.01 | [5] 0.038

DCAF15 (UniProt Q66K64)
inactive: [1] -0.069 | [2] -0.01 | [3] -0.006 | [4] 0.011 | [5] 0.076

DDHD1 (UniProt Q8NEL9)
inactive: [1] 0.003 | [2] 0.033 | [3] 0.012 | [4] -0.02 | [5] -0.075

DDX17 (UniProt Q92841)
inactive: [1] 0 | [2] 0.024 | [3] 0.019 | [4] 0.047 | [5] -0.02

DFFA (UniProt O00273)
inactive: [1] 0.022 | [2] -0.024 | [3] -0.021 | [4] 0.003 | [5] -0.044

DENND1B (UniProt Q6P3S1)
inactive: [1] 0.154 | [2] -0.205 | [3] -0.062 | [4] -0.182 | [5] 0.014

DAP3 (UniProt P51398)
inactive: [1] 0.005 | [2] 0.023 | [3] 0.003 | [4] 0.025 | [5] 0.046

DEPDC5 (UniProt O75140)
inactive: [1] 0.006 | [2] -0.085 | [3] 0.05 | [5] 0

DDOST (UniProt P39656)
inactive: [1] -0.017 | [2] 0 | [3] 0.016 | [4] -0.057 | [5] -0.041

DDX10 (UniProt Q13206)
inactive: [1] 0.096 | [2] -0.081 | [3] -0.017 | [4] -0.134 | [5] 0.056

DDB2 (UniProt Q92466)
inactive: [1] -0.025 | [2] -0.026 | [3] 0.034 | [4] -0.027 | [5] 0.006

DENND4C (UniProt Q5VZ89)
inactive: [1] 0.012 | [2] -0.016 | [3] 0.048 | [4] -0.01 | [5] 0.026

DCP1A (UniProt Q9NPI6)
inactive: [1] -0.011 | [2] -0.031 | [3] 0.025 | [4] 0.018 | [5] -0.026

DBI isoform 5 (UniProt P07108)
inactive: [1] 0.069 | [2] -0.046 | [3] -0.035 | [4] -0.038 | [5] 0.123

DERL1 (UniProt Q9BUN8)
inactive: [1] 0.01 | [2] 0 | [3] 0.04 | [4] -0.08 | [5] -0.068

DDX31 (UniProt Q9H8H2)
inactive: [1] 0.008 | [2] -0.08 | [3] -0.059 | [4] -0.014 | [5] 0.018
